Test results taken from the supplement of paper PMC10849652.
This is one part of the list.

Protein sequences, listed by entry. Tags and fused reporters are not part of them. Lines headed by an entry give the natural chain unless they say otherwise; changes in a name come on top.
UniProt Q9Y421: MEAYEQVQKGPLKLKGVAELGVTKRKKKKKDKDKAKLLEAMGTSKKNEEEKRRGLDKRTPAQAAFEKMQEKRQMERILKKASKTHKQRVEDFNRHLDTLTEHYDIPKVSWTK
UniProt Q9NSD9: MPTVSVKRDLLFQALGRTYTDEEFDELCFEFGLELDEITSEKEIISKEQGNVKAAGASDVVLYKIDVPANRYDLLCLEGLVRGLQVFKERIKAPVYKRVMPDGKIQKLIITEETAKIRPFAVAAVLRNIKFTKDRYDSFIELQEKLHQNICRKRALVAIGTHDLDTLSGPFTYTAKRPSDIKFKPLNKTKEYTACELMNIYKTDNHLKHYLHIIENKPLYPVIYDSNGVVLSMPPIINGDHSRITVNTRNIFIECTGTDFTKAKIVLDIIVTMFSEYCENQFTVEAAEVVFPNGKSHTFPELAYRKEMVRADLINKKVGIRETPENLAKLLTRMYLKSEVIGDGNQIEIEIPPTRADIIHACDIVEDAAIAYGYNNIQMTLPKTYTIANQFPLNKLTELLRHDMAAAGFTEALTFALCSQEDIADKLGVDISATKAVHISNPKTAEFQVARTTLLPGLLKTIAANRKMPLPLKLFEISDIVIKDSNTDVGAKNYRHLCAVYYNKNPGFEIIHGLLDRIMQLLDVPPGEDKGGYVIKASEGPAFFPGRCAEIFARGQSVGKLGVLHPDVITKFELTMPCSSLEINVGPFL
UniProt P10109: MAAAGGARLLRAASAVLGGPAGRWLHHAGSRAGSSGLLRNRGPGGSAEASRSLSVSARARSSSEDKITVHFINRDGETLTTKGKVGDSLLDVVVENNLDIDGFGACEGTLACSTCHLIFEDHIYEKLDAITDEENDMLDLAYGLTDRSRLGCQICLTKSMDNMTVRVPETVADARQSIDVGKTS
UniProt Q52LJ0: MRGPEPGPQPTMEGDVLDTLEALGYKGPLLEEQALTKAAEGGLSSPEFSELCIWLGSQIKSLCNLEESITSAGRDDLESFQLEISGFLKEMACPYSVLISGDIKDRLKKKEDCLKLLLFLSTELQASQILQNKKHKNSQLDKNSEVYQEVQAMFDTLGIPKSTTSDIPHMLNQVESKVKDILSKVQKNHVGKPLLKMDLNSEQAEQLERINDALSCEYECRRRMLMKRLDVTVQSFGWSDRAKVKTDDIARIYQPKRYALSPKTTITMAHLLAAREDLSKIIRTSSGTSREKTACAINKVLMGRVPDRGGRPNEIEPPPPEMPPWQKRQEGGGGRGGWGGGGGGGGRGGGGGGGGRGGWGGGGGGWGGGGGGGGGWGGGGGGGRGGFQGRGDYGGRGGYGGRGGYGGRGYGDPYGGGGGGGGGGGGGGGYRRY
UniProt O95302: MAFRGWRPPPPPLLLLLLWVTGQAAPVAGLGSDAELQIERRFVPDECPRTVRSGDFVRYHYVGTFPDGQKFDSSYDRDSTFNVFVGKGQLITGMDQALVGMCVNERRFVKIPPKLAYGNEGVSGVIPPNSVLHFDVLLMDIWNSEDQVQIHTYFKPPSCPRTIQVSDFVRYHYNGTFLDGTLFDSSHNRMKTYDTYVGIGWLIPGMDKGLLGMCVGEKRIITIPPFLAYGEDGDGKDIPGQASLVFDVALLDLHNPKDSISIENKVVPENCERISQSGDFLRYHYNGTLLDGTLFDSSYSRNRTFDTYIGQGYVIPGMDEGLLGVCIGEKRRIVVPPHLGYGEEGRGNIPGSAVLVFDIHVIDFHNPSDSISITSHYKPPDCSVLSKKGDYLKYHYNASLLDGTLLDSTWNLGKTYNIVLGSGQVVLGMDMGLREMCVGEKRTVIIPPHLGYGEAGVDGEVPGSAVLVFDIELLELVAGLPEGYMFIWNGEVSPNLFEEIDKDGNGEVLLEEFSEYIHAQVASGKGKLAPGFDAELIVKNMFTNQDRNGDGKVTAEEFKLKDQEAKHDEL
UniProt Q9HA64: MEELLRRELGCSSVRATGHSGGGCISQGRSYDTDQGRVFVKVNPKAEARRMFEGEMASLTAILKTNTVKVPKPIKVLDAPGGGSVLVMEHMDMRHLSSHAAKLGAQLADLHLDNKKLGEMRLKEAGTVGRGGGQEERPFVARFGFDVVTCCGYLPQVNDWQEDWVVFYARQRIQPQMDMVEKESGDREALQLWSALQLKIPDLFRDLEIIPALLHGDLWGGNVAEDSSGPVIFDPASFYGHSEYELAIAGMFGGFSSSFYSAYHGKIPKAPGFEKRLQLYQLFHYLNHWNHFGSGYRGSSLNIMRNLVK
UniProt Q8WVX9: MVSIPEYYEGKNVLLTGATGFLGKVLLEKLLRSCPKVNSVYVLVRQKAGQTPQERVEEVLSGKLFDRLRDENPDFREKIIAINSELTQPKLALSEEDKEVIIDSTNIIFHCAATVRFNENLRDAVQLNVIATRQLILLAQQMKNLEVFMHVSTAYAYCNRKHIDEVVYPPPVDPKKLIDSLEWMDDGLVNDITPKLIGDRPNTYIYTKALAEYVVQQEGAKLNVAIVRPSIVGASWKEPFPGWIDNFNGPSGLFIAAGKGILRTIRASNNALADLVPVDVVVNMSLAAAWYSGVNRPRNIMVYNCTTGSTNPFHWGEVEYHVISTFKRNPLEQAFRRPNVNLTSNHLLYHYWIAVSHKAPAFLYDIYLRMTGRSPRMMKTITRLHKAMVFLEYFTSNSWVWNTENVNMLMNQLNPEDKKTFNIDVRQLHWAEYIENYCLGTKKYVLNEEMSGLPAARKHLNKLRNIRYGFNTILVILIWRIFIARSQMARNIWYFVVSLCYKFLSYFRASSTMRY
UniProt P02751, whole entry, looked up: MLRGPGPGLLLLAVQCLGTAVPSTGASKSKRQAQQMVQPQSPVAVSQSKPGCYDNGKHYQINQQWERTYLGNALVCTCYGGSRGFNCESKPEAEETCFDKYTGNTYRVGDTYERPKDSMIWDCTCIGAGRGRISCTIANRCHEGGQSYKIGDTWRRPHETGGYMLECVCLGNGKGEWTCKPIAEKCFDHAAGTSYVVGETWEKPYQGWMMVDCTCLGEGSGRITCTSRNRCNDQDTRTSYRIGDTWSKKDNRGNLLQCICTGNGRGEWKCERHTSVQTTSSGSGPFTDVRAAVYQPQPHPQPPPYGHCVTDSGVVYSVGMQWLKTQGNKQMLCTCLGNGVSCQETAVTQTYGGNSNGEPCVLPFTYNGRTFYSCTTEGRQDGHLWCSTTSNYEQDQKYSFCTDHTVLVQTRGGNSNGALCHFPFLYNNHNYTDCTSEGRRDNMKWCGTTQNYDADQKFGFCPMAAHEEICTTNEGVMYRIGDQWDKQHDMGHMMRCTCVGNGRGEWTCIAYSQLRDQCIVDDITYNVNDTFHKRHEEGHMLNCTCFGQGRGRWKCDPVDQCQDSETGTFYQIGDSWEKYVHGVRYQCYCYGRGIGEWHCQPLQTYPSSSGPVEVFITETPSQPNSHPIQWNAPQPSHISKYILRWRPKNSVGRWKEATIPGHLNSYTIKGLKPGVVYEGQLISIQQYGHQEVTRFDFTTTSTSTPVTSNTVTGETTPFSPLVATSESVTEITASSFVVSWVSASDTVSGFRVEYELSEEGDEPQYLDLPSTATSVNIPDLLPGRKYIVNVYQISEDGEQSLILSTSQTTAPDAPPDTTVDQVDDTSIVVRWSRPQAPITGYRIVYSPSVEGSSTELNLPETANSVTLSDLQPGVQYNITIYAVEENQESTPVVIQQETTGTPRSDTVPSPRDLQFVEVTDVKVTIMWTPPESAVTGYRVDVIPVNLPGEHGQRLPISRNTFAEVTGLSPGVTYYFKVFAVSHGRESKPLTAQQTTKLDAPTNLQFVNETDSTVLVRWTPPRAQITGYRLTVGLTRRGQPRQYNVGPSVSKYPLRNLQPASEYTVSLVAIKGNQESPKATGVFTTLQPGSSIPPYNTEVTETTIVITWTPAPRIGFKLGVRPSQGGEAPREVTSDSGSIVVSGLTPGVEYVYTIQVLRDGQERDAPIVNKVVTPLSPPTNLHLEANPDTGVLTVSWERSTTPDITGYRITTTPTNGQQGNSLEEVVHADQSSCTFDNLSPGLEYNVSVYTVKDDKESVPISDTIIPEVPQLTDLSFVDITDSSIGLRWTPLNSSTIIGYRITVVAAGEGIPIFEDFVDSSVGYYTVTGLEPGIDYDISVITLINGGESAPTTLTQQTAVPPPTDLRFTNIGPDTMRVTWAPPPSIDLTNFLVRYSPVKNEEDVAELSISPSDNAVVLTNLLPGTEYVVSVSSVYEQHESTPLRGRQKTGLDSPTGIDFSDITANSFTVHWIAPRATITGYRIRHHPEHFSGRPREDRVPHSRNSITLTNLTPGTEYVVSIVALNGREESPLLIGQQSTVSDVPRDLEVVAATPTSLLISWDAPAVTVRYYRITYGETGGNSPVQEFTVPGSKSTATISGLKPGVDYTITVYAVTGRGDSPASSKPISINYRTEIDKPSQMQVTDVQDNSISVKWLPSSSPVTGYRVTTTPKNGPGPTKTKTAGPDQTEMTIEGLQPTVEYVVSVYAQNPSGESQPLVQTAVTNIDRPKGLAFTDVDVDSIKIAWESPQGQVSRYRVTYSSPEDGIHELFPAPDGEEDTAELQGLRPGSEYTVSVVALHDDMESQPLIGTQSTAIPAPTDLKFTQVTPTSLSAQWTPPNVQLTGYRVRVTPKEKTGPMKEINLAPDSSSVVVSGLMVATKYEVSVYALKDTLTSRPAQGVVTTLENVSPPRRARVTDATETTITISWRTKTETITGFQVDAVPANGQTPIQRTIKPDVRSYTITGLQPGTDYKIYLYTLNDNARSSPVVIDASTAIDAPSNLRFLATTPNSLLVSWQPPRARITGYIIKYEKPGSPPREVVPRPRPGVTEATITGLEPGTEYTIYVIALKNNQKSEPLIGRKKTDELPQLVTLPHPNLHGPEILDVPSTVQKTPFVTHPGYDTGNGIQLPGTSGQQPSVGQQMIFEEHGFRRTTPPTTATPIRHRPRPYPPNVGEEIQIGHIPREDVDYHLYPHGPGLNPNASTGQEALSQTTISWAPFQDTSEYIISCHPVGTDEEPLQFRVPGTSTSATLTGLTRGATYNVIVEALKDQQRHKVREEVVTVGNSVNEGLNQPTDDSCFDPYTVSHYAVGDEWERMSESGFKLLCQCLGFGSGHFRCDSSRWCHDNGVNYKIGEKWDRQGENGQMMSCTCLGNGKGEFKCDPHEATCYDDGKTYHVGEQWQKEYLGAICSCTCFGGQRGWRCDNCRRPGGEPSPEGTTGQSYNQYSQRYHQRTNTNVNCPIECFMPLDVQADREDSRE
UniProt Q9Y3D6: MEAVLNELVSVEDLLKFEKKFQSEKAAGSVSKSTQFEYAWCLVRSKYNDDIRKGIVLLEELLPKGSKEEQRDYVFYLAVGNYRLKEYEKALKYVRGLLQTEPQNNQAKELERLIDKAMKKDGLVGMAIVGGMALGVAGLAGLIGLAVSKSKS
UniProt P26885: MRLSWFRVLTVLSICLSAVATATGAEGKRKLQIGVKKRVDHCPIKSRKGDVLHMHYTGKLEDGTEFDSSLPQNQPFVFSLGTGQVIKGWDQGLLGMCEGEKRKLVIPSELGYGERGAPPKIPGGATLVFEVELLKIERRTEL
UniProt Q53R41: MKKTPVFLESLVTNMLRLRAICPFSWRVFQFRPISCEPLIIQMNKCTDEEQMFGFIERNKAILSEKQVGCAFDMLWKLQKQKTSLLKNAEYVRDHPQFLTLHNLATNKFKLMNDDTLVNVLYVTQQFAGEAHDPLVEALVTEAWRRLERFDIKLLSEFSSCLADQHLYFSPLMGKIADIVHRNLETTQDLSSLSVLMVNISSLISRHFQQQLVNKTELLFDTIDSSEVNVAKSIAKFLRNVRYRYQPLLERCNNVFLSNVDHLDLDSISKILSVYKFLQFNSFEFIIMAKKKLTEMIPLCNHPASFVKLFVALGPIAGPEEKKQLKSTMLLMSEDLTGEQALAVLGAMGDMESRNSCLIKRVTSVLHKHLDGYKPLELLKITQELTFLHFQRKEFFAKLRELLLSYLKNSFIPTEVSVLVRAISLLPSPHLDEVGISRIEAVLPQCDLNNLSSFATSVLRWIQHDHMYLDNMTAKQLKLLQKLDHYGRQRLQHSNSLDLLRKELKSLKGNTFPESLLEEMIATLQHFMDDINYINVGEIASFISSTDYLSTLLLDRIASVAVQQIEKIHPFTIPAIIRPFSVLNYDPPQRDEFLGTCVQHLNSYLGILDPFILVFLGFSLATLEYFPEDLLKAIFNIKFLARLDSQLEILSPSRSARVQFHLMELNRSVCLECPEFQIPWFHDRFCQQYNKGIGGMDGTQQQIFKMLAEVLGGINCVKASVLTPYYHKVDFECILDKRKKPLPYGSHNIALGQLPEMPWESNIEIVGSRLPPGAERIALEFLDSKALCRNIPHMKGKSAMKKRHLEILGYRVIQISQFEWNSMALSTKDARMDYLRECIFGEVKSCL

What was measured:
Assay in all cases: log2 fold change, soluble protein after heating vs DMSO (PISA); higher = thermal stabilisation; K562 cells, 10 uM, 30 min; active = over 0.2 and 3.5 SD of the protein, either way, in both replicates (recomputed)
bafetinib = compound: Cc1ccc(NC(=O)c2ccc(CN3CC[C@H](N(C)C)C3)c(C(F)(F)F)c2)cc1Nc1nccc(-c2cncnc2)n1 [bafetinib]
Summary of the method: (§1)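 Soluble protein was quantified by TMTpro 16plex LC-MS/MS after channel sums were equalised. It was obtained as the supernatant after 21,000xg for 90 min from pooled aliquots of K562 cells (2×10^6 cells/mL, 10 μM compound, 30 min) heated for 3 min across 48°C-58°C and extracted in PBS with 0.5% NP-40 at 4°C. Thermal stability values are relative to control samples and come from duplicates. They are given as log2 fold changes.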

[1] = compound: Cc1cccc(CC(=O)N2CCc3c2ccc(-c2cn(C)c4ncnc(N)c24)c3F)n1
Summary of the method: as §1

nilotinib = compound: Cc1cn(-c2cc(NC(=O)c3ccc(C)c(Nc4nccc(-c5cccnc5)n4)c3)cc(C(F)(F)F)c2)cn1 [nilotinib]
Summary of the method: as §1

[2] = compound: Cc1nc(Nc2n[nH]c3c2CN(C(=O)N[C@H](CN(C)C)c2ccccc2)C3(C)C)c2sccc2n1
Summary of the method: as §1

dasatinib = compound: Cc1nc(Nc2ncc(C(=O)Nc3c(C)cccc3Cl)s2)cc(N2CCN(CCO)CC2)n1 [dasatinib]
Summary of the method: as §1

[3] = compound: Cc1ncc(-c2ccnc(Nc3ccc(S(C)(=O)=O)cc3)n2)n1C(C)C
Summary of the method: as §1

[4] = compound: Cn1cc(-c2ccc3c(c2)CCN3C(=O)Cc2cccc(C(F)(F)F)c2)c2c(N)ncnc21
Summary of the method: as §1

[5] = compound: Cn1cc(-c2ccc3nnc(C(F)(F)c4ccc5ncccc5c4)n3n2)cn1
Summary of the method: as §1

tipifarnib = compound: Cn1cncc1[C@@](N)(c1ccc(Cl)cc1)c1ccc2c(c1)c(-c1cccc(Cl)c1)cc(=O)n2C [tipifarnib]
Summary of the method: as §1

mubritinib = compound: FC(F)(F)c1ccc(/C=C/c2nc(COc3ccc(CCCCn4ccnn4)cc3)co2)cc1 [mubritinib]
Summary of the method: as §1

[6] = compound: NC(=O)Nc1cc(-c2cccc(F)c2)sc1C(=O)N[C@H]1CCCNC1
Summary of the method: as §1

[7] = compound: NC(=O)c1cnc(N[C@@H]2CCCC[C@@H]2N)nc1Nc1cccc(-n2nccn2)c1
Summary of the method: as §1

[8] = compound: NC1(c2ccc(-c3nc4ccn5c(=O)[nH]nc5c4cc3-c3ccccc3)cc2)CCC1
Summary of the method: as §1

[9] = compound: NCC(=O)Nc1ccc(-n2nc(C(F)(F)F)cc2-c2ccc3c(ccc4ccccc43)c2)cc1
Summary of the method: as §1

entinostat = compound: Nc1ccccc1NC(=O)c1ccc(CNC(=O)OCc2cccnc2)cc1 [entinostat]
Summary of the method: as §1

vorinostat = compound: O=C(CCCCCCC(=O)Nc1ccccc1)NO [vorinostat]
Summary of the method: as §1

citarinostat = compound: O=C(CCCCCCNC(=O)c1cnc(N(c2ccccc2)c2ccccc2Cl)nc1)NO [citarinostat]
Summary of the method: as §1

silmitasertib = compound: O=C(O)c1ccc2c(c1)nc(Nc1cccc(Cl)c1)c1ccncc12 [silmitasertib]
Summary of the method: as §1

[10] = compound: O=C1NC(=O)C(c2cnc3ccccn23)=C1c1cn2c3c(cc(F)cc13)CN(C(=O)N1CCCCC1)CC2
Summary of the method: as §1

[11] = compound: c1cc(OCCN2CCCCC2)cc(-c2n[nH]c3ccc(-c4nnc[nH]4)cc23)c1
Summary of the method: as §1

| Target | log2 fold change (bafetinib) | log2 fold change [1] | log2 fold change (nilotinib) | log2 fold change [2] | log2 fold change (dasatinib) | log2 fold change [3] | log2 fold change [4] | log2 fold change [5] | log2 fold change (tipifarnib) | log2 fold change (mubritinib) | log2 fold change [6] | log2 fold change [7] | log2 fold change [8] | log2 fold change [9] | log2 fold change (entinostat) | log2 fold change (vorinostat) | log2 fold change (citarinostat) | log2 fold change (silmitasertib) | log2 fold change [10] | log2 fold change [11] |
| --- | --- | --- | --- | --- | --- | --- | --- | --- | --- | --- | --- | --- | --- | --- | --- | --- | --- | --- | --- | --- |
| FGFR1OP (UniProt O95684) | inactive: 0.007 | inactive: 0.004 | inactive: 0.006 | inactive: -0.015 | inactive: 0.016 | inactive: -0.013 | inactive: -0.014 | inactive: 0.042 | inactive: -0.051 | inactive: -0.009 | inactive: 0.088 | inactive: -0.085 | inactive: -0.034 | inactive: -0.015 | inactive: 0.108 | inactive: 0.041 | inactive: -0.041 | inactive: 0.016 | inactive: 0.001 | inactive: -0.075 |
| FAM32A (UniProt Q9Y421) | inactive: 0.07 | inactive: -0.054 | inactive: -0.111 | inactive: 0.18 | inactive: 0.174 | inactive: 0.176 | inactive: -0.116 | inactive: -0.08 | inactive: 0.056 | inactive: -0.049 | inactive: -0.004 | inactive: -0.019 | inactive: 0.087 | inactive: -0.055 | inactive: 0.014 | inactive: -0.017 | inactive: -0.034 | inactive: 0.048 | inactive: 0.061 | inactive: -0.061 |
| FARSB (UniProt Q9NSD9) | inactive: -0.009 | inactive: 0.007 | inactive: -0.05 | inactive: -0.002 | inactive: -0.046 | inactive: 0.026 | inactive: 0.017 | inactive: 0.012 | inactive: -0.022 | inactive: 0.001 | inactive: -0.017 | inactive: -0.042 | inactive: -0.054 | inactive: -0.006 | inactive: 0.025 | inactive: 0.019 | inactive: 0.031 | inactive: 0.01 | inactive: 0.011 | inactive: -0.026 |
| FDX1 (UniProt P10109) | inactive: -0.042 | inactive: 0.046 | inactive: 0.022 | inactive: -0.045 | inactive: 0.003 | inactive: -0.055 | inactive: 0.007 | inactive: -0.035 | inactive: 0.013 | inactive: -0.037 | inactive: -0.083 | inactive: 0.023 | inactive: 0.061 | inactive: -0.017 | inactive: 0.04 | inactive: -0.075 | inactive: 0.022 | inactive: 0.051 | inactive: -0.01 | inactive: -0.03 |
| FKBPL (UniProt Q9UIM3) | inactive: -0.04 | inactive: -0.041 | inactive: -0.016 | inactive: -0.038 | inactive: -0.005 | inactive: 0.002 | inactive: 0.039 | inactive: -0.016 | inactive: 0.01 | inactive: 0.009 | inactive: -0.008 | inactive: -0.016 | inactive: -0.045 | inactive: -0.022 | inactive: -0.021 | inactive: 0.009 | inactive: 0.037 | inactive: -0.04 | inactive: -0.057 | inactive: -0.038 |
| FKBP5 (UniProt Q13451) | inactive: 0.011 | inactive: 0.035 | inactive: -0.129 | inactive: -0.122 | inactive: -0.135 | inactive: 0.072 | inactive: 0.003 | inactive: 0.067 | inactive: -0.164 | inactive: -0.026 | inactive: -0.097 | inactive: -0.155 | inactive: -0.087 | inactive: -0.05 | inactive: 0.034 | inactive: 0.098 | inactive: 0.092 | inactive: 0.103 | inactive: 0.083 | inactive: -0.007 |
| FAM98B (UniProt Q52LJ0) | inactive: 0.139 | inactive: 0.064 | inactive: 0.101 | inactive: 0 | inactive: -0.092 | inactive: 0.052 | inactive: -0.074 | inactive: -0.013 | inactive: -0.104 | inactive: -0.091 | inactive: 0.127 | inactive: 0.031 | inactive: -0.095 | inactive: 0.093 | inactive: -0.006 | inactive: 0.077 | inactive: -0.024 | inactive: 0.075 | inactive: 0.123 | inactive: -0.122 |
| FKBP9 (UniProt O95302) | inactive: -0.052 | inactive: -0.029 | inactive: 0.027 | inactive: 0.033 | inactive: 0.03 | inactive: -0.055 | inactive: -0.048 | inactive: 0.036 | inactive: 0.037 | inactive: -0.06 | inactive: -0.073 | inactive: 0.007 | inactive: -0.028 | inactive: -0.013 | inactive: -0.02 | inactive: -0.03 | inactive: 0.029 | inactive: 0.015 | inactive: -0.007 | inactive: -0.056 |
| FEM1B (UniProt Q9UK73) | inactive: -0.076 | inactive: -0.058 | inactive: -0.031 | inactive: -0.031 | inactive: -0.065 | inactive: -0.028 | inactive: -0.015 | inactive: -0.034 | inactive: 0.007 | inactive: 0.101 | inactive: -0.052 | inactive: -0.028 | inactive: -0.065 | inactive: -0.086 | inactive: 0.008 | inactive: 0.012 | inactive: 0.017 | inactive: 0.011 | inactive: -0.022 | inactive: -0.063 |
| FN3KRP (UniProt Q9HA64) | inactive: -0.021 | inactive: 0.008 | inactive: -0.004 | inactive: 0.042 | inactive: 0.02 | inactive: -0.012 | inactive: 0 | inactive: 0.006 | inactive: 0 | inactive: 0.01 | inactive: 0.049 | inactive: -0.005 | inactive: 0.021 | inactive: 0.014 | inactive: -0.019 | inactive: 0.001 | inactive: 0.003 | inactive: -0.044 | inactive: 0.016 | inactive: 0.024 |
| FDXR isoform 7 (UniProt P22570) | inactive: -0.012 | inactive: -0.162 | inactive: -0.031 | inactive: -0.015 | inactive: -0.245 | inactive: -0.042 | inactive: -0.023 | inactive: 0.038 | inactive: -0.002 | active: -0.643 | inactive: -0.03 | inactive: -0.044 | inactive: -0.083 | inactive: -0.082 | inactive: -0.006 | inactive: 0.084 | inactive: 0.031 | inactive: -0.034 | inactive: -0.197 | inactive: -0.11 |
| FAR1 (UniProt Q8WVX9) | inactive: -0.083 | inactive: -0.008 | inactive: -0.009 | inactive: 0.003 | inactive: 0.038 | inactive: 0.004 | inactive: 0.006 | inactive: 0.051 | inactive: 0.16 | inactive: 0.014 | inactive: -0.03 | inactive: -0.003 | inactive: 0.027 | inactive: -0.084 | inactive: -0.017 | inactive: 0.012 | inactive: 0.044 | inactive: -0.051 | inactive: -0.135 | inactive: 0.111 |
| FN1 isoform 1 (UniProt P02751) | inactive: -0.11 | inactive: -0.043 | inactive: 0.102 | inactive: 0.073 | inactive: 0.008 | inactive: 0.189 | inactive: 0.176 | inactive: 0.023 | inactive: 0.096 | inactive: -0.083 | inactive: -0.029 | inactive: -0.029 | inactive: 0.008 | inactive: 0.038 | inactive: -0.014 | inactive: 0.217 | inactive: -0.035 | inactive: 0.088 | inactive: 0.095 | inactive: 0.066 |
| FIS1 (UniProt Q9Y3D6) | inactive: -0.087 | inactive: -0.034 | inactive: 0.041 | inactive: -0.002 | inactive: -0.044 | inactive: 0.007 | inactive: 0.111 | inactive: 0.07 | inactive: -0.024 | inactive: 0.053 | inactive: -0.013 | inactive: 0.075 | inactive: 0.002 | inactive: 0.133 | inactive: -0.004 | inactive: -0.027 | inactive: 0.051 | inactive: -0.017 | inactive: -0.03 | inactive: -0.006 |
| FKBP2 (UniProt P26885) | inactive: -0.088 | inactive: -0.023 | inactive: 0.026 | inactive: 0.013 | inactive: -0.002 | inactive: -0.026 | inactive: 0.016 | inactive: 0.002 | inactive: 0.024 | inactive: -0.014 | inactive: -0.034 | inactive: -0.063 | inactive: -0.011 | inactive: 0.022 | inactive: -0.035 | inactive: -0.009 | inactive: -0.005 | inactive: 0.014 | inactive: -0.065 | inactive: -0.04 |
| FASTKD1 (UniProt Q53R41) | inactive: 0.098 | inactive: -0.021 | inactive: -0.183 | active: 0.54 | inactive: -0.168 | inactive: -0.053 | inactive: 0.217 | inactive: -0.064 | – | – | inactive: 0.046 | inactive: -0.014 | – | inactive: 0.033 | inactive: -0.019 | inactive: 0.018 | inactive: -0.055 | – | inactive: -0.12 | inactive: 0.046 |

Fetched one by one from the entries so far:

| Target | log2 fold change (bafetinib) | log2 fold change [1] | log2 fold change (nilotinib) | log2 fold change [2] | log2 fold change (dasatinib) | log2 fold change [3] | log2 fold change [4] | log2 fold change [5] | log2 fold change (tipifarnib) | log2 fold change (mubritinib) | log2 fold change [6] | log2 fold change [7] | log2 fold change [8] | log2 fold change [9] | log2 fold change (entinostat) | log2 fold change (vorinostat) | log2 fold change (citarinostat) | log2 fold change (silmitasertib) | log2 fold change [10] | log2 fold change [11] |
| --- | --- | --- | --- | --- | --- | --- | --- | --- | --- | --- | --- | --- | --- | --- | --- | --- | --- | --- | --- | --- |
| FKBP9 (UniProt O95302) | inactive: -0.052 | inactive: -0.029 | inactive: 0.027 | inactive: 0.033 | inactive: 0.03 | inactive: -0.055 | inactive: -0.048 | inactive: 0.036 | inactive: 0.037 | inactive: -0.06 | inactive: -0.073 | inactive: 0.007 | inactive: -0.028 | inactive: -0.013 | inactive: -0.02 | inactive: -0.03 | inactive: 0.029 | inactive: 0.015 | inactive: -0.007 | inactive: -0.056 |
| FKBPL (UniProt Q9UIM3) | inactive: -0.04 | inactive: -0.041 | inactive: -0.016 | inactive: -0.038 | inactive: -0.005 | inactive: 0.002 | inactive: 0.039 | inactive: -0.016 | inactive: 0.01 | inactive: 0.009 | inactive: -0.008 | inactive: -0.016 | inactive: -0.045 | inactive: -0.022 | inactive: -0.021 | inactive: 0.009 | inactive: 0.037 | inactive: -0.04 | inactive: -0.057 | inactive: -0.038 |
